Structures are written as SMILES. Some of the results follow. These are further read-outs of the screen, such as a control signal, another cell line or another target. No call is given for them. The list favours compounds with an active or inconclusive main result. Words in brackets tell the shape of the fitted curve; partial curves, single points and poor fits give uncertain potencies.

Here are results for 17 compounds from PubChem BioAssay AID445 (National Center for Advancing Translational Sciences (NCATS), 2006).

The test can be described thus: IkB Signaling. The note with it: ABC-DLBCL IkBa-CBG/CBR dual luciferase ratio (green luciferase fused to IkBa over red control in OCI-Ly3 lymphoma cells), 4 h; measured here: control luc red channel unless noted. In short, it runs like this: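 Curves were fitted separately to fusion (green), unfused (red) and ratio luminescence, then classed by r2, magnitude and activity. Cells: OCI-Ly3, 4 h compound plus doxycycline at 37C; 10 uM MG-132 defined full response.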
The AC50 is the concentration at which the activity in the assay is half-maximal. Turning to `Cc1ccc(-n2ncc3c(Nc4cccc(Cl)c4)ncnc32)c(C)c1`, the AC50 is 39.8 µM [falling, single point].
To `CCCCN(C)S(=O)(=O)c1ccc(C(=O)Nc2nnc(-c3cccs3)o2)cc1` belongs 10 µM [falling, partial curve]; to `COc1cccc(-c2nn(-c3ccccc3)cc2C(=O)Nc2nccs2)c1`, 3.98 µM [falling, full curve].
To `COc1cc(NC(=O)C2=CC(c3ccc(F)cc3)=NS(=O)(=O)N2C)cc(OC)c1OC` belongs 2.51 µM [falling, full curve]; to `Nc1ccc(N2CCCCCC2)cc1`, 15.8 µM [falling, partial curve]; to `O=C(CSc1nccn1Cc1ccc(F)cc1)Nc1nc2ccccc2s1`, 39.8 µM [falling, single point].
On to `CCN(Cc1ccccc1)C(=O)C1CCN(S(=O)(=O)c2ccc3c(c2)CCCN3C(C)=O)CC1`, for which the half-maximal activity concentration (AC50) was 2 µM [rising, partial curve].
Take `COc1ccc(Cl)cc1NC(=O)c1cn(C2CCCC2)c(=O)c2c1c1ccccc1n2C`: the half-maximal activity concentration (AC50) was 20 µM [falling, single point].
Take `O=C(NCC(c1cccs1)S(=O)(=O)c1ccccc1)c1ccc(C(F)(F)F)cc1` (configuration not stated): the half-maximal activity concentration (AC50) was 0.0501 µM [falling, full curve, poor fit].
To `O=C(Nc1ccc(F)cc1)c1ccc2c(=O)n3c(nc2c1)CCCCC3` belongs 31.6 µM [falling, single point]; to `Cc1cccc(N(CC(=O)Nc2ccccc2C(F)(F)F)S(=O)(=O)c2ccccc2)c1C`, 25.1 µM [falling, partial curve]; to `CN(C)CCNC(=O)Cn1ccc2cc(S(=O)(=O)N3CCCCCC3)ccc21`, 31.6 µM [falling, single point].
For `COc1ccc(CNC(=O)CSc2ncc3c(n2)-c2ccc(Cl)cc2N(Cc2ccccc2)S3(=O)=O)cc1`, the half-maximal activity concentration (AC50) is 5.01 µM [falling, partial curve, poor fit].
Regarding `Cc1cc(Cl)ccc1OCC(=O)N(Cc1ccco1)Cc1ccccc1F`, the AC50 is 31.6 µM [falling, single point].
To `O=C(CN(c1ccccc1)S(=O)(=O)c1ccccc1)N1CCN(Cc2ccc3c(c2)OCO3)CC1` belongs 12.6 µM [falling, partial curve].
With `COc1ccc(-c2noc(-c3ccc(N4CCCC4)c([N+](=O)[O-])c3)n2)cc1OC`, the AC50 was 6.31 µM [falling, partial curve].
To `CCc1ccc(-n2nc(C)c3c(C(=O)N4CCN(c5ccccc5)CC4)cc(C)nc32)cc1` belongs 15.8 µM [falling, partial curve].
